{"source": "PubChem BioAssay AID504834", "about": "(National Center for Advancing Translational Sciences (NCATS), 2011)", "note": "The whole screen tested about 320,000 compounds, of which about 22,000 (6.9%) were called active. The inconclusive results got no clear call from the source; some entries with a clear call stand among them for comparison. Calls follow the shape of the dose curve; as a rule, active = well fitted inhibition curve with a large enough effect; inconclusive = small, poorly fitted or top-dose-only effect, or another doubt; inactive = no such curve, though single readings can be large or run the other way. Potencies beside an inconclusive call are fits to weak or partial responses and may not hold up. % is scaled to controls: 0 for no effect and ±100 for the full control effect; potency is read from the fitted curve at half-maximal effect.", "data": [{"assay": "Primary qHTS for delayed death inhibitors of the malarial parasite plastid, 96 hour incubation", "conditions": "P. falciparum luciferase reporter growth; series mostly up to 28.7 µM; activity change, negative = inhibition: at the top concentration", "summary_of_the_method": "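Cell-based qHTS: luciferase-tagged P. falciparum in erythrocytes (2% hematocrit, 0.05% parasitemia final) incubated with compounds for 96 hours, 37 C, 5% CO2; luciferase detection reagent then added and luminescence measured.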", "values": [{"smiles": "COc1ccc(-c2nn(-c3ccccc3)cc2C(=O)NCC(c2cccs2)N2CCOCC2)cc1", "note": "(stereo not given)", "Potency": "inconclusive: 11.7 µM [inhibitor, single point]"}, {"smiles": "CCn1nnnc1SCC(=O)NC1CCCC1", "Potency": "inconclusive: 6.57 µM [inhibitor, partial curve, poor fit]"}, {"smiles": "O=C(Nc1ccccc1)/C(=C/c1ccc(O)cc1)NC(=O)c1ccco1", "activity change, negative = inhibition": "inactive: 18.4%"}, {"smiles": "Fc1cccc(Cl)c1COc1ccc(-c2nnco2)cc1", "activity change, negative = inhibition": "inactive: -3.53%"}, {"smiles": "COc1ccccc1OC(C)C(=O)NNC(=S)NC1CCCC1", "note": "(stereo not given)", "Potency": "inconclusive: 18.5 µM [inhibitor, single point]"}, {"smiles": "C#CCSc1nsc(SCC#C)c1C#N", "Potency": "inconclusive: 2.08 µM [inhibitor, full curve, poor fit]"}, {"smiles": "Nc1nonc1-c1noc(N2CCOCC2)n1", "activity change, negative = inhibition": "inactive: 79.7%"}, {"smiles": "COc1ccc(CNC(=O)C(C)Sc2nc3ccccc3c(=O)n2CCCN2CCOCC2)cc1", "note": "(stereo not given)", "Potency": "inconclusive: 1.47 µM [inhibitor, partial curve]"}, {"smiles": "O=C(NNC(=O)c1ccccc1OCc1ccccc1)c1ccccc1O", "Potency": "inconclusive: 14.7 µM [inhibitor, single point]"}, {"smiles": "C[C@@H](C(=O)Nc1ccc2c(c1)OCO2)n1c(=O)[nH]c2ccccc2c1=O", "Potency": "inconclusive: 18.5 µM [inhibitor, single point]"}, {"smiles": "CCOc1ccccc1NC(=O)COc1ccc2ccc(=O)oc2c1", "Potency": "inconclusive: 8.28 µM [inhibitor, partial curve]"}, {"smiles": "COc1ccc(C(c2nnnn2C(C)(C)C)N2CCN(C(=O)c3ccco3)CC2)cc1", "note": "(stereo not given)", "activity change, negative = inhibition": "inactive: -19.7%"}, {"smiles": "COc1ccc(/C=N/NC(=S)N[C@H]2CC3CCC2C3)cc1", "note": "(stereo not given in full)", "Potency": "active: 5.22 µM"}, {"smiles": "CCN1CCN(Cc2c(O)ccc3c(=O)c(-c4ccc(OC)c(OC)c4)c(C(F)(F)F)oc23)CC1", "activity change, negative = inhibition": "inactive: 90%"}, {"smiles": "Cc1ccc([N+](=O)[O-])cc1NC(=S)NC(=O)C(C)(C)C", "activity change, negative = inhibition": "inactive: -4.19%"}, {"smiles": "CCOc1ccc(NC(=O)CN(C)C(=O)CC2CC3CCC2C3)cc1OCC", "note": "(stereo not given)", "Potency": "inconclusive: 8.28 µM [inhibitor, partial curve]"}, {"smiles": "CC(C)CN(CC(C)C)C(=O)CC(=O)NC(=O)c1ccc(Cl)cc1", "Potency": "inconclusive: 18.5 µM [inhibitor, partial curve, poor fit]"}, {"smiles": "COc1cccc(C(=O)Nc2c3c(nn2-c2ccc([N+](=O)[O-])cc2)CS(=O)(=O)C3)c1", "Potency": "inconclusive: 10.4 µM [inhibitor, single point]"}, {"smiles": "NS(=O)(=O)c1ccc(N=Cc2c(O)c3ccccc3oc2=O)cc1", "activity change, negative = inhibition": "inactive: -21.9%"}, {"smiles": "O=C(OCc1ccc(-c2ccccc2)cc1)c1cccc(O)c1", "Potency": "inconclusive: 18.5 µM [inhibitor, single point]"}]}]}
